# Assay results taken from publication PMC9454088.
# The exact form of at least one protein or probe is not confirmed.
# Biological target: alpha-synuclein oligomer (UniProt P37840)
# Assay: binding assay
# Conditions: alpha-synuclein oligomers; 10 mM Tris-HCl pH 7.4, 150 mM NaCl, 5 mM KCl, 37 C with agitation (aggregation); AUC at 20 C, 55,000 rpm; recombinant protein; residues 1-140; single-stranded DNA
sequence,measurement,value
GCCTGTGGTGTTGGGGCGGGTGCG [T-SO508 aptamer],Kd,68 nM
